Patent US20240216401A1, “COMBINATION THERAPY BY USING AKR1C3-ACTIVATED COMPOUND WITH IMMUNE CHECKPOINT INHIBITOR” (OBI Pharma, Inc., priority 2021, published 2024)
“And” between values parts separate entries of the source, which are not always exact repeats. Identical values can stand only once. Further values from the same series stand in other lists.

Test system: HepG2 tumor
Experiment: Example 2: tumor volume, tumor weight and TGI in HepG2 tumor bearing humanized mice
Assay type: in vivo, Mus musculus
Settings: G3 OBI-3424 (1 mg/kg)
Protocol: 1. Species: Mus musculus • Strain: Advanced immunodeficiency mouse. • (NOD.CgPrkdc^scid Il2rg) • Source: Trineo Biotechnology Co., LTD.
Each group contains six mice. The human hepatocellular carcinoma cell line HepG2 were subcutaneously inoculated to the advanced immune-deficiency mice. Total of 42 mice were included in this study.
2.2. […] The subcutaneous injection volume was […].
3.1. […] The injection was performed using insulin syringe with the dosage of 0.3 mg/kg or 1 mg/kg and the injection volume was 5 mL/kg. […] The reference item was administered for G1. The procedure followed the standards of sample administration. The starting day of test item administration was denoted as the first experimental day (DO).
3.2. […] The injection was performed using insulin syringe with the dosage of 20 mg/kg and injection volume of 10 mL/kg. […] The procedure followed the standards of sample administration.
The measurement was performed from the next day of the inoculation. The tumor volumes were measured and recorded twice a week (Mon., Thur.). Tumor volume was calculated by ellipsoid equation according to the records ((major axis×minor axis×minor axis)×(π/6)).
Tumor volumes were used to calculate tumor growth inhibition (TGI) rates according to the following formula: TGI (%)=[1−(Ti−T0)/(Ci−C0)]×100, where Ti and Ci indicate the mean tumor volume in the treatment groups and vehicle group at the end of the experiment (Day 30). Whereas, T0 and C0 indicate the mean tumor volumes in the treatment group and vehicle group at the beginning of the experiment (Day 0).
Mice were sacrificed by CO2 euthanasia at the end of the study duration, and the connective tissue around tumor was resected. The tumor samples were then weighed and cut equally into three sections if the tumor weight over 400 mg. The tumor tissue was prepared for the isolation of tumor-infiltrating lymphocytes (TILs). The rest of one section was fixed in 10% formaldehyde and embedded in paraffin; the other was stored at a temperature below −70° C.

C[C@H](OP(=O)(N1CC1)N1CC1)c1ccc([N+](=O)[O-])c(Oc2cccc(C(=O)N(C)C)c2)c1 [OBI-3424, (S)-1-(3-(3-N,N-dimethylaminocarbonyl)phenoxyl-4-mtrophenyl)-1-ethyl-N,N′-bis(ethylene)phosphoramidate]
Tumor volume (D0, group Mean): 294.7 mm^3
Tumor volume (D0, individual animals, 1 mg/kg): 233.0 mm^3 and 306.6 mm^3 and 332.7 mm^3
Tumor volume (D2, group Mean): 299.1 mm^3
Tumor volume (D2, individual animals, 1 mg/kg): 238.8 mm^3 and 310.3 mm^3 and 334.6 mm^3
Tumor volume (D6, group Mean): 303.6 mm^3
Tumor volume (D6, individual animals, 1 mg/kg): 240.6 mm^3 and 312.8 mm^3 and 338.1 mm^3
Tumor volume (D9, group Mean): 365.9 mm^3
Tumor volume (D9, individual animals, 1 mg/kg): 301.7 mm^3 and 337.3 mm^3 and 416.4 mm^3
Tumor volume (D13, group Mean): 385.7 mm^3
Tumor volume (D13, individual animals, 1 mg/kg): 342.7 mm^3 and 352.9 mm^3 and 422.6 mm^3
Tumor volume (D16, group Mean): 418.2 mm^3
Tumor volume (D16, individual animals, 1 mg/kg): 343.3 mm^3 and 354.8 mm^3 and 429.4 mm^3
Tumor volume (D20, group Mean): 414.4 mm^3
Tumor volume (D20, individual animals, 1 mg/kg): 343.7 mm^3 and 355.2 mm^3 and 425.6 mm^3
Tumor volume (D23, group Mean): 380.6 mm^3
Tumor volume (D23, individual animals, 1 mg/kg): 343.7 mm^3 and 355.2 mm^3 and 360.3 mm^3
Tumor volume (D27, group Mean): 315.0 mm^3
Tumor volume (D27, individual animals, 1 mg/kg): 327.7 mm^3 and 252.6 mm^3 and 341.1 mm^3
Tumor volume (D30, group Mean): 216.9 mm^3
Tumor volume (D30, individual animals, 1 mg/kg): 197.1 mm^3 and 145.5 mm^3 and 262.8 mm^3
